Test results: paper PMC9307851
The exact form of at least one protein or probe is not confirmed. At least one verdict rests on a figure or table, not on a statement of the authors.

Target: DNMT3B MTase domain WT (human) (UniProt Q9UBC3)
Experiment: EMSA
Settings: 40 nM DNA, 0-800 nM protein; EMSA: 50 mM Tris-HCl pH 8.0, 25% glycerol, 8% glucose, 2 mM DTT, 0.1 mg/mL BSA, 30 min, gel in 0.5x TBE at 4 C; recombinant …; residues 569-853; protein details: His6-MBP removed by TEV

Sequence: GACGACGACGACGACGACGACGACGACGACGACGAC (double strand) [(GAC)12 DNA duplex]
- binding result: binds
